Earlier results, collected in patent US20070082942A1, “Prevention of hiv-1 infection by inhibition of rho-mediated reorganization and/or content alteration of cell membrane raft” (priority 2003, published 2007).
At least one compound was matched to its structure with a doubt left.

Test system: cholesterol synthesis
Conditions: liver and small intestine vs peripheral cells; cited from earlier work

## CC[C@H](C)C(=O)O[C@H]1C[C@H](O)C=C2C=C[C@H](C)[C@H](CC[C@@H](O)C[C@@H](O)CC(=O)O)[C@H]21 [pravastatin, [1S-[1alpha(beta*, delta*)2alpha, 6alpha, 8beta(R*),8aalpha]]-1,2,6,7,8,8a-hexahydro-beta, delta,6-trihydroxy-2-methyl-8-(2-methyl-1-oxobutoxy)-1-naphthalene-heptanoic acid]
  Selectivity of cholesterol synthesis inhibition: selectively inhibits cholesterol synthesis in the liver and small intestine
